Data as given in PubChem BioAssay AID743402 (Broad Institute, 2014).
In all, about 1,200 compounds went through this assay and about 140 (12%) were called active.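 Rule for the calls: active = fitted curve falls past -35% activity change at a dose under twice the top valid dose, in every replicate test; inconclusive = replicate tests disagree on the call; inactive = the rest, including activity in the opposite direction.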 Most of the strongest results are missing from this list.

Assay: CFTR-F508del correctors, dose response, FRT cells, YFP quenching, cherry-pick (AID 743402);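 note: compounds act as correctors raising surface CFTR-F508del before acute activation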
Settings: FRT CFTR-F508del YFP iodide quenching, 24 h, channel opened with forskolin and a potentiator; at 26 µM (top of the series) unless noted

Activity change, negative = more quenching (active), inactive:
CCOc1ccc(N(CC)C(=O)COc2cc(=O)n(C)c3ccccc23)cc1 7.14%
O=C(NC1CCN(Cc2ccccc2)CC1)c1cc(S(=O)(=O)N2CCOCC2)ccc1Cl 10%
O=C(N/N=C/c1cc(Br)cc(Cl)c1O)c1ccc2c(c1)OCO2 11.5%
O=C(NCc1cccnc1)c1cc(C2CCCCN2C(=O)CCCc2ccccc2)on1 (stereo not given) 13.3%
CCC(=O)N1CC2(CCN(Cc3ccc(Cl)cc3)CC2)c2c(n(C)c3cc(OC)ccc23)[C@H]1CO -6.91%
CCOC(=O)c1ccc(-c2c(-c3cc(OC)c(OC)c(OC)c3)noc2C)cc1F 3.33%
CCCN1[C@H](C(=O)N2CCOCC2)[C@@H](CO)[C@@H]2Cn3c(ccc(/C=C/c4ccccc4)c3=O)[C@@H]21 10.2%
COc1ccc(S(=O)(=O)N2CCN(CCOc3ccccc3Cl)CC2)cc1OC 10%
CCOc1ccc(NC(=O)c2ccc(NC(=O)CN3C(=O)C(=O)N(CC(C)C)C3=O)cc2)cc1 10.8%
CC(=O)c1ccc(Nc2cc(C)nc3c(C)cc(C)cc23)cc1 12.9% [at 8 µM]
C[C@@H]1CN([C@@H](C)CO)C(=O)Cc2cc(NC(=O)Nc3ccc(C(F)(F)F)cc3)ccc2O[C@H]1CN(C)C(=O)Nc1ccccc1 7.14%
CCn1c(SCC(=O)N/N=C/c2ccc(O)c(OC)c2)nc2ccccc21 11.2%
CCOC(=O)c1sc(Nc2nc(C)cc(C)n2)nc1C -11.1%
COC(=O)C1=CN(c2ccc3c(c2)OCO3)C(N)=C(C#N)C1c1cccc(F)c1 (stereo not given) -3.12%
Cc1ccc(C(=O)NC(=S)NNC(=O)c2ccccc2O)cc1 -6.46%
CCSc1nnc(N2C(=O)C(O)=C(C(=O)c3ccco3)C2c2cccc(OC)c2)s1 (stereo not given) -9.58%
Cc1ccc2cc(CN(CC3CCCO3)C(=S)Nc3ccccc3)c(=O)[nH]c2c1C (stereo not given) 0%
COc1ccc(C)cc1Nc1c2c(nc3ccccc13)CCC2 29.2%
C[C@H]1CN([C@@H](C)CO)S(=O)(=O)c2ccc(-c3ccc(C#N)cc3)cc2O[C@@H]1CN(C)Cc1ccccn1 -1.72%
COc1cccc(C(=O)c2c[nH]c(C(=O)NCCCN3CCOCC3)c2)c1 12.9%
Cc1ccc(S(=O)(=O)N(Cc2cc3ccccc3[nH]c2=O)c2cccc(C)c2)cc1 12.9%
C[C@H](CO)N1C[C@H](C)[C@H](CN(C)C(=O)NC2CCCCC2)Oc2ncc(-c3cc4ccccc4o3)cc2C1=O 6.46%
COc1ccc(NC(=O)c2cc(S(=O)(=O)N3CCOCC3)ccc2C)cc1S(=O)(=O)N1CCOCC1 -6.25%
COc1cccc(-c2cc3nc(-c4ccccc4)cc(=O)n3[nH]2)c1 -20%
COc1ccc(C(=O)c2cc(OC)c(OC)c(OC)c2)cc1OC -20.9%
Cc1ccc(S(=O)(=O)Nc2ccc3c(c2)C(=O)N([C@@H](C)CO)C[C@H](C)[C@H](CN(C)S(=O)(=O)c2ccc(Cl)cc2)OCCCC[C@@H](C)O3)cc1 1.72%
CC(OC(=O)c1ccc(Cl)nc1)C(=O)NC(C)(C)C (stereo not given) 3.12%
O=C1NCCc2c1[nH]c1ccc([N+](=O)[O-])cc21 0%
CCCNC(=O)N1[C@H](CO)[C@@H](c2ccc(C3=CCCC3)cc2)[C@@H]1CN(C)C(C)=O 3.12%
Cc1sc(NC(=S)NC(=O)CCc2ccccc2)c(C(N)=O)c1C -6.46%
CCCCN1C(=O)CC(C(=O)OCC)=C1C -6.97%
C[C@H]1CCCCO[C@@H](CN(C)C(=O)Nc2ccc(C(F)(F)F)cc2)[C@@H](C)CN([C@@H](C)CO)C(=O)c2cc(NC(=O)Nc3ccc(F)cc3)ccc2O1 6.7%
O=Nc1ccc(O)c2ncccc12 -6.25%
Cc1ccc(-c2csc3ncn(CC#N)c(=O)c23)cc1C 0%
C=CCN1c2ccccc2[C@]23C[C@@H](C(=O)OC)N(C(=O)c4cccs4)C2=NC(C(=O)OC)=C(C(=O)OC)[C@H]13 6.67%
COc1cc2c(c(Br)c1N)-c1cc(Br)c(N)cc1C2=O -13.3%
COc1ccc(CC(=O)NCc2ccc(-n3cccc3)cc2)cc1OC 0%
COc1ccc(-c2ccc3c(c2)[C@H]2[C@H](CCN2S(=O)(=O)c2ccc(OC)cc2)[C@H](CO)N3C)cc1 -31.2% [at 8 µM]
COC(=O)c1ccc(C(=O)NC2CCCc3c2cnn3-c2cc(F)cc(F)c2)nc1 (stereo not given) 6.67%
Cc1cc(C(=O)CCC(=O)NC(C)c2ccc(S(N)(=O)=O)cc2)c(C)s1 (stereo not given) 0%
COc1cccc(-c2cccc(-c3nc(C(=O)NCC(F)(F)F)cc4c3[C@H](CCO)N([S@@](=O)C(C)(C)C)C4)c2)c1 13.8%
Cc1ccc(NC(=O)COC(=O)CCC2CCCC2)c(Br)c1 3.33%
CN1CCN(C(=O)c2ccc(CN(c3ccccc3)S(=O)(=O)c3ccccc3)cc2)CC1 13.3%
CN[C@H]1CCc2cc(OC)c(OC)c(OC)c2-c2ccc(N(C)CC(OC)OC)c(=O)cc21 -1.61%
Cc1cccc(C(=O)N(Cc2ccco2)c2c(N)n(Cc3ccccc3)c(=O)[nH]c2=O)c1 4.84%
CC1=Nc2cc(C(=O)NCC3CCCO3)ccc2Sc2ccc(Br)cc21 (stereo not given) 19.4%
COc1cccc(-c2nnc(SCC(=O)NC3CCS(=O)(=O)C3)n2C)c1 (stereo not given) 10.7%
CCN(CC(=O)Nc1cc(Cl)ccc1-n1cncn1)Cc1nc2ccccc2c(=O)[nH]1 6.67%
Cc1ccc2c(c1)CCCN2C(=O)CCc1nc2ccccc2c(=O)[nH]1 -6.67%
Cc1ccc(OCCC(=O)NNC(=O)c2ccc(Br)cc2)cc1 3.33%
CC(=O)N1Cc2cc(C(=O)NCC(F)(F)F)nc(-c3cccc(-c4cccnc4)c3)c2[C@@H]1CCO -6.46%
COc1ccc(OC)c(/C(C)=N\NC(=O)c2cc3cc(Cl)ccc3n2C)c1 0%
C[C@H](CO)N1C[C@H](C)[C@@H](CN(C)C(=O)Nc2ccc(C(F)(F)F)cc2)OCCCC[C@H](C)Oc2ccc(NC(=O)Nc3ccc(F)cc3)cc2C1=O 25.8%
COc1cc(NC(=O)c2csc(N)n2)cc(C(=O)Nc2cccc(C(F)(F)F)c2)c1 12.5%
CCCn1c(CN2CCN(C(=O)OCC)CC2)nc2cc(NC(=O)CC)ccc21 -3.12%
COc1ccc(-c2cc(=O)c3c(O)cc(O)cc3o2)cc1 5.42%
CCN(CC)S(=O)(=O)c1ccc(NC(=O)C2CC(=O)N(c3ccc4c(c3)OCCO4)C2)cc1 (stereo not given) 0%
C=CCN(CC=C)C(=S)Nc1ccc(OC)c(OC)c1 6.46%
O=C(c1cccnc1)N1CC[C@@H]2[C@H](CO)Nc3ccc(C4=CCCCC4)cc3[C@@H]21 -8.74%
COc1ccc(NC(=O)CSc2nnc(Cc3cccs3)n2C)cc1 8.17%
Cc1cc(N2CCCC2)c(F)cc1/C=C\[N+](=O)[O-] -17.9%
COc1ccc(C(C)=O)cc1CS(=O)(=O)CC(=O)NCCc1c[nH]c2ccccc12 20%
COc1ccc(C#Cc2ccc3c(c2)O[C@@H](CN(C)C(=O)Nc2cccc(OC)c2)[C@H](C)CN([C@H](C)CO)S3(=O)=O)cc1 7.14%
O=C(NCC(c1cccs1)N1CCOCC1)c1ccc(OCc2ccccc2)cc1 (stereo not given) 6.7%
COc1cc(OC)c2c(-c3cccc(-c4ccc(OC)c(OC)c4)c3)cc(=O)oc2c1 -3.33%
COc1cc(C(=O)OCCc2cc3ccccc3c(=O)o2)cc(OC)c1OC 9.68%
CCN(CC(=O)Nc1ccc(NC(C)=O)cc1)C(=O)c1ccc(N2CCC(C)CC2)c([N+](=O)[O-])c1 12.9%
Cc1cc(C(=O)CN2C(=O)C(=O)N(Cc3ccccc3)C2=O)c(C)n1Cc1ccccc1 3.33%
Cc1ccc(S(=O)(=O)NCCCNS(=O)(=O)c2ccc(C)cc2)cc1 3.33%
COC(CNC(=O)[C@H](Cc1ccccc1)N1Cc2ccccc2C1=O)OC -3.33%
COc1ccc(N(C)S(=O)(=O)c2cccc(C(=O)NCC3CCCCC3)c2)cc1 12.9%
O=C(N/N=C/c1cc2c3c(c1O)CCCN3CCC2)c1ccccc1O 6.25%
O=C1C=CN(C2OC(CO)C(O)C2O)C(=O)C1 (stereo not given) 13.3%
Cc1ccc(S(=O)(=O)N2CCN(C(=O)COC(=O)/C=C/c3ccc(Cl)cc3)CC2)c(C)c1 14.8%
CCCCNC(=O)CSc1nc2ccc(C)cc2[nH]1 16.2%
C[C@@H]1CN([C@H](C)CO)S(=O)(=O)c2ccc(-c3ccc(C#N)cc3)cc2O[C@H]1CN(C)Cc1cccc(F)c1 0%
Cc1ccc(/C=N/NC(=O)c2c(-c3ccccc3)noc2C)c(O)c1 12.9%
CCCc1nc(SC2CCCC2)c2c(=O)n(C)c(=O)n(C)c2n1 3.33%
Cn1cc(C(=O)OCC2CCN(CCNS(C)(=O)=O)CC2)c2ccccc21 12.5%
COc1cc(OC)cc(C(=O)c2c(C)c(C#N)c3ccccn23)c1 -14.3%

At a glance, some entries already given.
Activity change, negative = more quenching (active), inactive:
Cc1ccc(S(=O)(=O)N2CCN(C(=O)COC(=O)/C=C/c3ccc(Cl)cc3)CC2)c(C)c1 14.8%
CCCCNC(=O)CSc1nc2ccc(C)cc2[nH]1 16.2%
C[C@@H]1CN([C@H](C)CO)S(=O)(=O)c2ccc(-c3ccc(C#N)cc3)cc2O[C@H]1CN(C)Cc1cccc(F)c1 0%
